No constants are given. Whether binding was seen depends on the method and setting. Some entries that bind do so weakly or less than the wild type.
Target: T1, murine GPRC5D (murine, UniProt Q9JIL6 1-344)
T1 construct: whole, on cells; also called mGPRC5D; mouse GPRC5D
T1 sequence (looked up): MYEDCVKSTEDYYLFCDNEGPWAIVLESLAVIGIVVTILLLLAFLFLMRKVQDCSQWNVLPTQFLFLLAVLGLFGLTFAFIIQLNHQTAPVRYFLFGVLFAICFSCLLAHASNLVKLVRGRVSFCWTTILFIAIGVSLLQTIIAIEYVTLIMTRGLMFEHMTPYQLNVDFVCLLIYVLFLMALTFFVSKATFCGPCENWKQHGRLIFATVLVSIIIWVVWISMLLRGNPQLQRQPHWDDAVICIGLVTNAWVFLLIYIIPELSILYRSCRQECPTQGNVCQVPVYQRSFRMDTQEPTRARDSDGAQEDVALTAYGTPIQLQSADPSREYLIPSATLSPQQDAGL
Assay: Jurkat Nur77-RFP reporter activation after 1:1 co-culture with K562 cells expressing the target (indirect read-out)

B1: GPRC5D-205 VL/VH - long (anti-GPRC5D CAR) (protein)
chain: QSVVTQPPSMSAAPGQQVTISCSGGNSNIERNYVSWYLQLPGTAPKLVIFDNDRRPSGIPDRFSGSKSGTSATLGITGLQTGDEADYYCGTWDSSLRGWVFGGGTKLTVLGSRGGGGSGGGGSGGGGSLEMAEVQLVESGGGLIQPGGSLRLSCAASGFTFSNYAMNWVRQAPGKGLEWVSTINGRGSSTIYADSVKGRFTISRDNSKNTLYLQMNSLRAEDTATYYCARYISRGLGDSWGQGTLVTVESKYGPPCPPCPAPPVAGPSVFLFPPKPKDTLMISRTPEVTCVVVDVSQEDPEVQFNWYVDGVEVHNAKTKPREEQFQSTYRVVSVLTVLHQDWLNGKEYKCKVSNKGLPSSIEKTISKAKGQPREPQVYTLPPSQEEMTKNQVSLTCLVKGFYPSDIAVEWESNGQPENNYKTTPPVLDSDGSFFLYSRLTVDKSRWQEGNVFSCSVMHEALHNHYTQKSLSLSLGKMFWVLVVVGGVLACYSLLVTVAFIIFWVKRGRKKLLYIFKQPFMRPVQTTQEEDGCSCRFPEEEEGGCELRVKFSRSADAPAYQQGQNQLYNELNLGRREEYDVLDKRRGRDPEMGGKPRRKNPQEGLYNELQKDKMAEAYSEIGMKGERRRGKGHDGLYQGLSTATKDTYDALHMQALPPR
binding: binds

Source: patent US20210393689A1 (JUNO THERAPEUTICS, published 2021)
